Among all 320,000 compounds or so, about 2,100 (0.66%) were called active. The inconclusive results got no clear call from the source; some entries with a clear call stand among them for comparison. Calls come from the whole dose curve; as a rule, active = well fitted inhibition curve with a large enough effect in the signal ratio, with a control signal flat (not every such curve was filed as active); inconclusive = small, poorly fitted or top-dose-only effect, or effect the other way, or a change in a side signal; inactive = flat fitted curve, though single readings scatter; the % refers to the signal ratio. A potency beside an inconclusive call is a rough fit, not a confirmed value.
assay: qHTS Assay for Lipid Storage Modulators in Drosophila S3 Cells; settings: BODIPY lipid droplet fluorescence, 18-24 h, cells fed with added oleic acid; lipid storage change, negative = inhibition: at 46.1 µM (top of the series) unless noted
Outline: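 Laser-scanning cytometry quantifies lipid droplet accumulation (500–530 nm total intensity; droplet/cell object ratio) in oleic acid-fed (400 uM added) Drosophila S3 cells treated with a concentration series. 20 uM Triacsin C defined 100% inhibition.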
% is set by controls: 0 for no effect and ±100 for the full control effect; potency is the fitted concentration of half-maximal effect.

Structure (SMILES)	lipid storage change, negative = inhibition	Potency
CC(C)c1ccc(C(=O)NN2CCOCC2)cc1	inconclusive: -5.58%	
CN(C)c1ccc(NC(=O)CC(NCc2ccccn2)C(=O)O)cc1 (centres undefined)	inconclusive: -0.378%	
Cc1cc(C)c(-c2cc(C(=O)Nc3c(C)n(C)n(-c4ccccc4)c3=O)[nH]n2)c(O)c1	inconclusive: 13.4%	
O=C(N/N=C\c1ccccc1)c1ccccc1-n1cccc1	inconclusive: 2.43%	
O=C(Nc1nc(-c2ccccc2)cs1)c1ccc(Br)o1		inconclusive: 20.6 µM [falling, partial curve, poor fit]
O=C(NCCC1=CCCCC1)C1CCN(c2nc3ccccc3o2)CC1		inconclusive: 2.06 µM [falling, full curve]
CCOC(=O)CNc1c(N2CCN(c3ccccn3)CC2)c(=O)c1=O	inconclusive: 59.4%	
Cc1cc(C)cc(-n2nnnc2SCC(=O)Nc2cccc(NC(=O)c3ccco3)c2)c1	inconclusive: -25.3%	
O=C(NCc1ccco1)c1ccccc1	inconclusive: 12%	
O=C1CCN(Cc2ccc(O)cc2)CCN1CCO		inconclusive: 29.1 µM [activator, partial curve, poor fit]
CC(C)(C)c1ccc(-c2noc(CCC(=O)NCC3CCCO3)n2)cc1 (centres undefined)		inconclusive: 23.1 µM [cytotoxic, partial curve]
COc1ccc(NC(=O)CN(C)C(=O)CSCC(=O)Nc2ccc(C)cc2)cc1	inconclusive	
COc1ccc(-c2noc(CSc3nnc(CCc4ccccc4)n3-c3ccccc3)n2)cc1OC		inconclusive: 29.1 µM [activator, single point]
O=c1[nH]c(-c2ccc(Cl)cc2)nc(=S)[nH]1	inconclusive: -5.74%	
O=[n+]1c2c(n([O-])c3cc(F)ccc31)CCCC2	inconclusive: 21.7%	
CCOC(=O)c1cc(NC(=O)N(CC)CC)c(C)nc1C	inconclusive: 1.78%	
Cc1ccc(NC(=O)CN(C)c2ccc(S(=O)(=O)N3CCN(C)CC3)cn2)cc1	inconclusive: 14.4%	
Oc1ccc(C2C=C(c3ccc(F)cc3)Nc3ncnn32)cc1 (centres undefined)	inconclusive: 6.41%	
COc1ccc(-n2c(O)c(C=NCc3ccccn3)c3ccccc3c2=O)c(OC)c1	inconclusive: 10.9%	
CC(=O)C1=C(O)C(=O)N(c2cccnc2)C1c1cccc([N+](=O)[O-])c1 (centres undefined)		inconclusive: 0.13 µM [falling, full curve, poor fit]
COc1cc(Cl)c(S(=O)(=O)N2CCOCC2)cc1Cl		inconclusive: 0.326 µM [falling, full curve, poor fit]
CC(C)NC1=C(Cl)C(=O)c2ccccc2C1=O	inconclusive: -26.5%	
CCOc1cc(C(=O)O)ccc1OCCOc1ccccc1	inconclusive: 81.1%	
COc1cccc(NC(=O)CN(C)S(=O)(=O)c2ccc(C)cc2)c1	inconclusive: 17.9%	
COC(=O)[C@H](C)[C@H]1C[C@]1(C)[C@H](NC(=O)OCc1ccccc1)c1ccccc1		inconclusive: 7.31 µM [activator, partial curve]

A draw from above in order of length of the SMILES, falling.
Structure (SMILES)	lipid storage change, negative = inhibition	Potency
COc1ccc(NC(=O)CN(C)C(=O)CSCC(=O)Nc2ccc(C)cc2)cc1	inconclusive	
COc1cccc(NC(=O)CN(C)S(=O)(=O)c2ccc(C)cc2)c1	inconclusive: 17.9%	
O=c1[nH]c(-c2ccc(Cl)cc2)nc(=S)[nH]1	inconclusive: -5.74%	

Following part.

Structure (SMILES)	lipid storage change, negative = inhibition	Potency
O=C(c1cccc2ccccc12)N1CCN(Cc2ccccc2F)CC1	inconclusive: -82.1%	
CCSc1nnc(-c2cccnc2)n1-c1ccc(Cl)c(C)c1	inconclusive: 4.52%	
O=C(Nc1ccc([N+](=O)[O-])cc1Br)c1cc2ccccc2nc1Cl	inconclusive: 18%	
CC1(C(=O)OCC(=O)Nc2ccc(C(N)=O)cc2)CC1(Cl)Cl (centres undefined)	inconclusive: 24.1%	
O=C1C=C(c2ccccc2)C[C@@H](c2ccc(Cl)cc2)C1	inconclusive: 14.1%	
COc1cccc(/C=C2\Oc3cc(OCC(=O)N4CCC[C@H]4C(=O)O)ccc3C2=O)c1		inconclusive: 0.103 µM [activator, full curve, poor fit]
CCn1c(O)c(N=NC(=O)c2cccc(S(=O)(=O)N3CCCCC3)c2)c2ccccc21		inconclusive: 29.1 µM [falling, single point]
Cc1cc(-c2[nH]nc3c2C(c2cccc(O)c2)C(C#N)=C(N)O3)c(C)s1 (centres undefined)		inconclusive: 2.31 µM [activator, single point]
COC(=O)C1CCN(C(=O)CN2C(=O)NC(CCc3ccccc3)C2=O)CC1 (centres undefined)	inconclusive: -4.07%	
CCCc1nnc(SCC(=O)Nc2cc(C)on2)n1CCOC		inconclusive: 1.84 µM [activator, partial curve, poor fit]
CCN(CC)CCCN=Cc1c(O)n(-c2ccc(C)cc2)c(=O)c2ccccc12	inconclusive: -15.4%	
Cc1cccc(Oc2ccccc2NC(=O)CN2C(=O)NC3(CCCC3)C2=O)c1	inconclusive	
COc1ccc(/C=C/C(=O)OCC(=O)c2c[nH]c3ccccc23)cc1	inactive: 9.96%	
CCN(CC)CCN(C(=O)c1ccc(S(=O)(=O)N2CCOCC2)cc1)c1nc2cc3c(cc2s1)OCCO3	inconclusive: 26.2%	
O=C(Cn1ccc(C(F)(F)F)n1)NNC(=O)c1ccco1		inconclusive: 0.82 µM [activator, full curve, poor fit]
Cc1ccc(N(CCC(=O)O)S(=O)(=O)c2ccccc2)cc1	inconclusive: -8.49%	
CCCCCc1c(C)nc(N2CCN(Cc3ccc4c(c3)OCO4)CC2)[nH]c1=O	inconclusive: 146%	
Cc1c(C(=O)c2cccc([N+](=O)[O-])c2)c2ccccn2c1CCC#N		inconclusive: 0.58 µM [activator, full curve, poor fit]
COc1ccc(OC)c(CN(CCN2CCOCC2)C(=O)Nc2ccccc2)c1		inconclusive: 0.461 µM [activator, full curve, poor fit]
CCCCOC(=O)C1=C(C)NC2=C(C(=O)CCC2)C1c1cc(OC)ccc1OC (centres undefined)		inconclusive: 0.58 µM [activator, full curve, poor fit]
COc1cc2c(cc1NC(=O)/C=C/c1ccc([N+](=O)[O-])cc1)oc1ccccc12	inconclusive: 34%	
COc1ccc(N(C)S(=O)(=O)c2cccc(C(=O)Nc3nc(C)cs3)c2)cc1		inconclusive: 29.1 µM [falling, single point]
CC(C)C1=Nc2cccc3cccc(c23)N1	inconclusive: -4.59%	
COC(=O)c1ccc(COC(=O)CNC(=O)c2cccc(OC)c2)o1		inconclusive: 6.51 µM [activator, single point]
C=CCn1c(SCC(=O)NC(=O)NCC(C)C)nnc1C1CCCCC1	inconclusive: 33%	

Structure (SMILES)	lipid storage change, negative = inhibition	Potency
CCOC(=O)c1cnn(-c2ccccc2)c1NC(=O)CCl	inconclusive: -30.5%	
O=C(/C=C/Nc1ccc([N+](=O)[O-])cc1Br)c1cccc2ccccc12	inconclusive: -3.65%	
CCCCCn1c(=O)c(F)cn(Cc2ccc(OC)c([N+](=O)[O-])c2)c1=O	inconclusive: 7.19%	
CC(=O)c1ccc(N2CCN(C(=O)CN3C(=O)NC4(CCCCC4)C3=O)CC2)c(F)c1		inconclusive: 20.6 µM [falling, single point]
COc1ccccc1N1CCN(C(=O)CSc2nc(C)c(C)c(=O)[nH]2)CC1		inconclusive: 4.61 µM [falling, single point]
Cc1cc(C)nc(N2CCCC(C(=O)Nc3ccc4c(c3)OCCO4)C2)n1 (centres undefined)		inconclusive: 5.17 µM [activator, single point]
COc1ccc(/C=C\C(=O)NCc2ccc3c(c2)cc(C)n3C)cc1OC	inconclusive: 7.54%	
CCc1cc(=O)oc2cc3occ(C)c3cc12		inconclusive: 2.31 µM [activator, partial curve]
CCCn1c(=O)c(C(=O)NCCc2ccc(Cl)cc2)c(O)c2ccccc21	inconclusive: -13.5%	
COc1ccc(C(O)P(=O)(OC(C)C)OC(C)C)cc1OC (centres undefined)		inconclusive: 14.6 µM [activator, partial curve]
Cc1nc2sccn2c(=O)c1S(=O)(=O)Nc1ccc(N2CCN(C)CC2)cc1	inconclusive: -7.29%	
COc1ccc(-c2cc(-c3nnc(COC(=O)c4ccc(O)cc4)o3)c3ccccc3n2)cc1OC	inconclusive: -0.0168% [at 9.22 µM]	
CCC(C)C(=O)Nc1nnc(SCC(=O)NC2CCCC2)s1 (centres undefined)		inconclusive: 2.91 µM [falling, single point]
COC(=O)C1=C(N)Oc2cc(C)[nH]c(=O)c2C1c1cc(OC)c(OC)c(OC)c1 (centres undefined)	inconclusive: 15%	
COc1cccc(CN(C)C(=O)CNC(=O)c2sc3ccccc3c2Cl)c1OC	inconclusive: 2.68%	
CN(C(=O)c1ccc(NC(=O)c2ccco2)cc1)c1ccccc1		active: 8.2 µM
COc1ccccc1NS(=O)(=O)c1ccccc1C#N	inconclusive: 50.7%	
Cc1cc(C)cc(N(C(=O)c2csnn2)C(C(=O)NC2CCCCC2)c2ccncc2)c1 (centres undefined)		inconclusive: 0.0052 µM [activator, full curve, poor fit]
CC(=O)Nc1ccc(-c2csc(NC(=O)c3ccc(C)o3)n2)cc1		inconclusive: 11.6 µM [falling, partial curve]
COc1ccc(NC(=O)COc2ccc(S(=O)(=O)N3CCOCC3)cc2C)cc1OC	inconclusive: -3.26%	
CCc1cccc(NC(=O)CCCN2C(=O)C(c3ccccc3)Oc3cccnc32)c1 (centres undefined)		active: 20.6 µM
C=CCn1c(C)c(C(C)=O)c(N2CCOCC2)nc1=S		active: 23.1 µM
CCOC(=O)N1N=C(c2ccccc2)CC1(O)C(F)(F)F (centres undefined)	inconclusive: 5.48%	
COc1ccc(Cc2nnc(NC(=O)CS(=O)(=O)c3ccccc3)s2)cc1OC		inconclusive: 10.3 µM [activator, partial curve]
